The text below walks through data of the supplement of paper PMC11732987, “Enantioselective OTUD7B fragment discovery through chemoproteomics screening and high-throughput optimisation” (Communications Chemistry, 2025).

Chains of the proteins cited; added tags and fusions are not shown. Lines headed by an entry give the natural chain unless they say otherwise; changes in a name come on top. Residues count along the entry.
UniProt Q8NFC6: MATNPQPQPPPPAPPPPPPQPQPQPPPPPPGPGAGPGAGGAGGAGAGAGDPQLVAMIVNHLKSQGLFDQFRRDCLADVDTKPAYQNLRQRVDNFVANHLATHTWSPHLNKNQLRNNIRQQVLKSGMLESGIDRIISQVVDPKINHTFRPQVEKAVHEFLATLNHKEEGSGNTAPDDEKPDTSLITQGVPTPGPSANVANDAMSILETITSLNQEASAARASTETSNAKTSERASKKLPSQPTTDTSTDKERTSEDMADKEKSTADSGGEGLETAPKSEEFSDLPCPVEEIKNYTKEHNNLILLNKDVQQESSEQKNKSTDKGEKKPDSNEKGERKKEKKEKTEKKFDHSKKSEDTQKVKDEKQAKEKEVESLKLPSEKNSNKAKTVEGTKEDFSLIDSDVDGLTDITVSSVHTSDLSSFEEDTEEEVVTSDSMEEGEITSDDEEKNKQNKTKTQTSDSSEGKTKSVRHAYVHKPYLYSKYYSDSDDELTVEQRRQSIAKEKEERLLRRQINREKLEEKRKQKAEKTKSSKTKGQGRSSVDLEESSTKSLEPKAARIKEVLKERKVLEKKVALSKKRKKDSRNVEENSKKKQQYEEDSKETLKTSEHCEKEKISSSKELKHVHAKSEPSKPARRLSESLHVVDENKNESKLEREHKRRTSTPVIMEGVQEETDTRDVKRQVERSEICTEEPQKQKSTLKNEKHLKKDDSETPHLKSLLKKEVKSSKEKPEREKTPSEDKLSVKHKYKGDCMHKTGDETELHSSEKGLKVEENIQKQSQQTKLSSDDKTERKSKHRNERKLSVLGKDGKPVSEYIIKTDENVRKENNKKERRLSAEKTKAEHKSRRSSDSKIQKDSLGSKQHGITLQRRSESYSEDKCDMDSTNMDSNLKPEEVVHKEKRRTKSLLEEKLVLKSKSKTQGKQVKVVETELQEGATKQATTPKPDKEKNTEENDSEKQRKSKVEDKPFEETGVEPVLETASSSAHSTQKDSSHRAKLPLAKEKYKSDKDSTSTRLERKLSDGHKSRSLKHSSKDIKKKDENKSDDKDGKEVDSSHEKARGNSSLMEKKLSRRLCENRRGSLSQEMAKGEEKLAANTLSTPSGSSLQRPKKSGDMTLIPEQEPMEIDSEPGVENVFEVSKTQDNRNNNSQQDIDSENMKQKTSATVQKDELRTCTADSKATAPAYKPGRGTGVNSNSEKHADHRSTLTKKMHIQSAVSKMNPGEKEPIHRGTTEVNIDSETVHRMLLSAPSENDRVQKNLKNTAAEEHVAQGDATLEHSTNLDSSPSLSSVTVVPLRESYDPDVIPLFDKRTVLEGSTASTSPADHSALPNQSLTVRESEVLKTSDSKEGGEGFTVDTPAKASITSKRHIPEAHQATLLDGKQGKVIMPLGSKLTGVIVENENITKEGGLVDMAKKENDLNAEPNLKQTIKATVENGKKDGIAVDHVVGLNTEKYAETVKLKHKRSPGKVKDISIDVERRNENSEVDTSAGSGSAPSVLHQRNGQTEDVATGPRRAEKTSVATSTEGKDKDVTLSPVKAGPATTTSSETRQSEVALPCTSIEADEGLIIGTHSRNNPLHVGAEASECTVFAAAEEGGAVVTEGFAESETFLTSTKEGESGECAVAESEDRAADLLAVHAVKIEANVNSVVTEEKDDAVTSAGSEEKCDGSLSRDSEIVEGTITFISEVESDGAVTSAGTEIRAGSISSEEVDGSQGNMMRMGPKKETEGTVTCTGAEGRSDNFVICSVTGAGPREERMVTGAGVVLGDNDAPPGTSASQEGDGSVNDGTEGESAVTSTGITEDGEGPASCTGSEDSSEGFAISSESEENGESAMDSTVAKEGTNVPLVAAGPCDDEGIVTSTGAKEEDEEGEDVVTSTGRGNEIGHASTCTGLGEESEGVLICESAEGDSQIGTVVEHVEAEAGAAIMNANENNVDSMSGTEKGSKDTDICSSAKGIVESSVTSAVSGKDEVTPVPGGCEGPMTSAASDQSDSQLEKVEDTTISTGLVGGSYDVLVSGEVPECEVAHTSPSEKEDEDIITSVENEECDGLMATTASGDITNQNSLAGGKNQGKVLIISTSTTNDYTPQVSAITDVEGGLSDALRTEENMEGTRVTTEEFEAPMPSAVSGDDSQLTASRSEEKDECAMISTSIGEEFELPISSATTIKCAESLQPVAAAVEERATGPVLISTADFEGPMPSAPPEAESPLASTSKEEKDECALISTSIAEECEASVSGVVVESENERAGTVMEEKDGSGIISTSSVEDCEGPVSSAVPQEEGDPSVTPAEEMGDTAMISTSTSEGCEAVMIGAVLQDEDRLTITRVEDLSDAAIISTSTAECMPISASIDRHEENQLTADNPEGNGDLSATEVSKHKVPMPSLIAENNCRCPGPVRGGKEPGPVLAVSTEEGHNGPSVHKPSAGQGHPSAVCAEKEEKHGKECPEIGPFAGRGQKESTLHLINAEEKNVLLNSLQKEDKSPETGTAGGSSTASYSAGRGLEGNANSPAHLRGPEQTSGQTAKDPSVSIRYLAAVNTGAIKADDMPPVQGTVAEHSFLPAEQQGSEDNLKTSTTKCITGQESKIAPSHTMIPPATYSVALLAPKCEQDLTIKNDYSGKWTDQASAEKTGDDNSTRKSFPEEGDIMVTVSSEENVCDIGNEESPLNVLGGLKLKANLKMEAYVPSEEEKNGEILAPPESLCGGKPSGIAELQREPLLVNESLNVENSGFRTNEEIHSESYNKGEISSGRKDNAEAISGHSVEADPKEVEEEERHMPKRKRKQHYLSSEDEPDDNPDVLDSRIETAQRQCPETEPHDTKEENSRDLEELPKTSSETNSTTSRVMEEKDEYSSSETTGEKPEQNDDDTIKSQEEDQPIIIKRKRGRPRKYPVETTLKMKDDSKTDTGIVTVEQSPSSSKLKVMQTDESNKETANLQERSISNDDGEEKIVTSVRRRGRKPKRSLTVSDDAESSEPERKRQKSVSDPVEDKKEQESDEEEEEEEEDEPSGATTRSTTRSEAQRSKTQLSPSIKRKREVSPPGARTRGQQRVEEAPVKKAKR
UniProt Q6F5E8: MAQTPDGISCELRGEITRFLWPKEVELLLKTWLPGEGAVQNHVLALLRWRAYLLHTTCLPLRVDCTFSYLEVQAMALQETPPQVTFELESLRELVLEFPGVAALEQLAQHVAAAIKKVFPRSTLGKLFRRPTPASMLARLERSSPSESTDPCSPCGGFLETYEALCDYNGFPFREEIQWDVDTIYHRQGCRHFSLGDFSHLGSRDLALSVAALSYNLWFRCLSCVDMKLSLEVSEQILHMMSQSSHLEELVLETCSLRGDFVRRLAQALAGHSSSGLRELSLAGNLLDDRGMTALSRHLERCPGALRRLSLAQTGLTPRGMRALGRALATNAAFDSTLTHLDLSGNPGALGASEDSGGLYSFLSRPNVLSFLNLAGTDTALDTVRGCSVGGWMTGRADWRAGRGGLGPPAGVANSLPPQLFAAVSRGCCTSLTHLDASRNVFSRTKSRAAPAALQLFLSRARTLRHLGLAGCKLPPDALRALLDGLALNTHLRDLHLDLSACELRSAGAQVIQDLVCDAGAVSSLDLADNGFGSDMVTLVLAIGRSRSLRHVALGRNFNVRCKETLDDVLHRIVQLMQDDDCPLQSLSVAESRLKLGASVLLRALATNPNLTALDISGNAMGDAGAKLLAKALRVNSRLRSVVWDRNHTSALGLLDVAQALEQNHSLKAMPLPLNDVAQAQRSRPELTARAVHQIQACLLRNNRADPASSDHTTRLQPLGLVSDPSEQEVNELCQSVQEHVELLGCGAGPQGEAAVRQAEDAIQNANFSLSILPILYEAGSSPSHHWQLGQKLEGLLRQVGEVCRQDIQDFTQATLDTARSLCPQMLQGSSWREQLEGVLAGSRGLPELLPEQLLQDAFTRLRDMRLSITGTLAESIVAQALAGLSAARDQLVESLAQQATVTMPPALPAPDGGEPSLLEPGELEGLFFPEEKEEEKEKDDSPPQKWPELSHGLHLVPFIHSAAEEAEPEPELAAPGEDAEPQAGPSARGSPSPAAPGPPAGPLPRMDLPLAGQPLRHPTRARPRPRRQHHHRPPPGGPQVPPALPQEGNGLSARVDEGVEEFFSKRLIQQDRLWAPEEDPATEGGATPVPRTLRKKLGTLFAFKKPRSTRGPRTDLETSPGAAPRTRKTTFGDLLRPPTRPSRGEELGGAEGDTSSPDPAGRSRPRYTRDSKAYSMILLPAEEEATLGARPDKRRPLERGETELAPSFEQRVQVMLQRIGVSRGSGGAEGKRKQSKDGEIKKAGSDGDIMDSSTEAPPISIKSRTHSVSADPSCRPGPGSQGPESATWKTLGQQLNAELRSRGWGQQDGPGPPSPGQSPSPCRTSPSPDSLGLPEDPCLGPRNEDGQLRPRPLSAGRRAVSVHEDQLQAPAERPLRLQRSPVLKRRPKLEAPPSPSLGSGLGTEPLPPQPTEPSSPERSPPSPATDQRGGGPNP
UniProt Q96GS4: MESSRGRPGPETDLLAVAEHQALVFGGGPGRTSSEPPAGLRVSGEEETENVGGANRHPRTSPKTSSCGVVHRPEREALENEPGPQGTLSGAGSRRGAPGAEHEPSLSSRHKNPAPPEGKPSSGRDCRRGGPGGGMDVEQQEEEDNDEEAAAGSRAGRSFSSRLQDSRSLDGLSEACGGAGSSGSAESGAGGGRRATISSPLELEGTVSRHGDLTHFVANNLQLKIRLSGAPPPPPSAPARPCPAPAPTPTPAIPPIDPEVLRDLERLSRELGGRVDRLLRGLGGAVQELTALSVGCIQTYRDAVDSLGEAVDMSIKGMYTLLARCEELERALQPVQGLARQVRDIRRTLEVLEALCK
UniProt Q96K31: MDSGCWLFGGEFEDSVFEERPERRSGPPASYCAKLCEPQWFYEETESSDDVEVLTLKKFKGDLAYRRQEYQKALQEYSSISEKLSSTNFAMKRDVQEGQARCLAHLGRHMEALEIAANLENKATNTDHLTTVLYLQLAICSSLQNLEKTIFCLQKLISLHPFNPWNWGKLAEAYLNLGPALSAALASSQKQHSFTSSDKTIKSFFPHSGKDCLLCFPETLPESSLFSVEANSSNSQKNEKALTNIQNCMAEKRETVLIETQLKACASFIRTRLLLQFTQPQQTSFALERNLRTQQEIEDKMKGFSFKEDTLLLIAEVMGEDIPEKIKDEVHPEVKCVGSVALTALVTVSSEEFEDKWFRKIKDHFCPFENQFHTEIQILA
UniProt Q8IYL3: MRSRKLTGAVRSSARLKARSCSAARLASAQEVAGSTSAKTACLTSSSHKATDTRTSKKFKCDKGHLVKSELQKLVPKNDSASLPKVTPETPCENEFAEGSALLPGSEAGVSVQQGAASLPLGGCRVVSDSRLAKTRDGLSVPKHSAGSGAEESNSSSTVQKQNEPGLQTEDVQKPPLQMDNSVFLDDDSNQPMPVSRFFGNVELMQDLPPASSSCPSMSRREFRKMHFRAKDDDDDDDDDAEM
UniProt P17655, 391-414: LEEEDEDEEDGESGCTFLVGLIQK
UniProt Q9H7E9, 2-24: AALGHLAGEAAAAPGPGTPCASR
UniProt P47756, 196-215: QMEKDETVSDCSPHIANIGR
UniProt Q96RR4: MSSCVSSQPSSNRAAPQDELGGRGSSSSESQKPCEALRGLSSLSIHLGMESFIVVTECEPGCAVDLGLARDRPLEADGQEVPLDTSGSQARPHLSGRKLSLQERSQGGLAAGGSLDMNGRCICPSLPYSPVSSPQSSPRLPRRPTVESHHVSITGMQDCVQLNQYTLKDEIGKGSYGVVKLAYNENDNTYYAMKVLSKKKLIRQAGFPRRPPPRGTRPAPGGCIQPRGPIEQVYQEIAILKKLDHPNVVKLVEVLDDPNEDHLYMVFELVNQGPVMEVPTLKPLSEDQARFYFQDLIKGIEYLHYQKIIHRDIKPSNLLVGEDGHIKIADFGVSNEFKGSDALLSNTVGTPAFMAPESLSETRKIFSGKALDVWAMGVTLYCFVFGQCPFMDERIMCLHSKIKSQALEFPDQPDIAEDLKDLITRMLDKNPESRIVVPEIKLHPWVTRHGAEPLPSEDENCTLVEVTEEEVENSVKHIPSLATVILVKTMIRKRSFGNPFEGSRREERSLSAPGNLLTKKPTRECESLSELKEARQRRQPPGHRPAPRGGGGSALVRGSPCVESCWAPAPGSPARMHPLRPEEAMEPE
UniProt Q9Y3E2: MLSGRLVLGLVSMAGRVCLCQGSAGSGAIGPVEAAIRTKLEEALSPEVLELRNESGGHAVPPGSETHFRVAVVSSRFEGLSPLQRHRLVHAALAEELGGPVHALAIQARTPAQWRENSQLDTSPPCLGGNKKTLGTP
UniProt P78410: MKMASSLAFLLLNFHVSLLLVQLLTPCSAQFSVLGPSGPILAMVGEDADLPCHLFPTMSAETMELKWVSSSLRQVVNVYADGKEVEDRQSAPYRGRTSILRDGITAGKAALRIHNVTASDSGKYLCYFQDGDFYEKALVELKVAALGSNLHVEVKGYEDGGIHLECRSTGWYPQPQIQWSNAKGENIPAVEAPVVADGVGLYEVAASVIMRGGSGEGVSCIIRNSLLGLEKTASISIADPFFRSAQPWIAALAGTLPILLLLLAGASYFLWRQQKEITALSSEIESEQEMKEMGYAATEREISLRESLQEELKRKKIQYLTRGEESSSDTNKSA

This is one part of the list. The data scatter; read single values as rough.

Compound in the assay: ClCC(=O)N[C@H]1CCCc2ccccc12
As to the kind of experiment: log2 mean competition ratio of IA-DTB cysteine labelling (DMSO/compound) (log2 ratio); higher = stronger cysteine engagement by compound. The settings on record: 200 µM; treatment time: 4 h; cell line lysate: HEK293T. The protocol: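 IA-DTB competitive cysteine chemoproteomics in HEK293T RIPA lysate. Lysates were treated with compound 29 or 30 at 50 or 200 µM for 4 h, then IA-DTB (500 µM, 1 h), trypsin-digested, NeutrAvidin-enriched and analysed by diaPASEF. Competition ratio = intensity DMSO / intensity compound (n=4 treated, n=64 DMSO); binding: mean log2 CR ≥ 1 and p ≤ 0.05 plus QC filters. Target is the cysteine site.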
As to BOD1L1 C1618 (UniProt Q8NFC6), the “log2 mean competition ratio” value is -0.0439.

For C19orf54 C186 (UniProt Q5BKX5), the “log2 mean competition ratio” value was -0.16. Turning to CAND1 C571, the “log2 mean competition ratio” value was -0.0408. For BOD1L1 C285 (UniProt Q8NFC6), the “log2 mean competition ratio” value is -0.404. Regarding C6orf89 C28 (UniProt Q6UWU4), the “log2 mean competition ratio” value was -0.0349. As to CAPN5 C495, the “log2 mean competition ratio” value is -0.0582.

Turning to CARMIL2 C1339 (UniProt Q6F5E8), the “log2 mean competition ratio” value was -0.0312. Under CAMSAP2 C1032 (UniProt Q08AD1) stands -0.0176. As for BPTF C20, the “log2 mean competition ratio” value is -0.0846. With CAND2 C131 (UniProt O75155), the “log2 mean competition ratio” value turned out to be 0.33. Regarding BPTF C1156, the “log2 mean competition ratio” value was -0.369. As for BORCS6 C67 (UniProt Q96GS4), the “log2 mean competition ratio” value is -0.437. Regarding C8orf76 C248 (UniProt Q96K31), the “log2 mean competition ratio” value was -0.321.

CARS2 C526 (UniProt Q9HA77): the “log2 mean competition ratio” value amounted to 0.198. Under CAMK2D C481 (UniProt Q13557) stands -0.612; under C1orf174 C42 (UniProt Q8IYL3), -0.247. For the target CAPN2 C405 (UniProt P17655), the “log2 mean competition ratio” value turned out to be 0.334. Under CBR1 C122 (UniProt P16152) stands 0.126; under CA8 C200 (UniProt P35219), -0.337. As to C8orf33 C21 (UniProt Q9H7E9), the “log2 mean competition ratio” value was found to be 0.141. Under CAPN2 C341 (UniProt P17655) stands -0.179; under BRF1 C289 (UniProt Q92994), -0.145; under C2CD5 C142 (UniProt Q86YS7), 0.123. On to CAD C1455, for which the “log2 mean competition ratio” value was found to be 0.0727. Regarding BRD9 C101 (UniProt Q9H8M2), the “log2 mean competition ratio” value is -0.325. As to CARMIL1 C464, the “log2 mean competition ratio” value is 0.209. As for CAPZB C206 (UniProt P47756), the “log2 mean competition ratio” value was found to be 0.0119.

With CAMSAP1 C719 (UniProt Q5T5Y3), the “log2 mean competition ratio” value was 0.49. For the target BRIP1 C401 (UniProt Q9BX63), the “log2 mean competition ratio” value was -0.201. BRCC3 C240 (UniProt P46736): the “log2 mean competition ratio” value came out at 0.217. Regarding BOD1L1 C1742 (UniProt Q8NFC6), the “log2 mean competition ratio” value turned out to be 0.0719. Under CAMKV C36 stands 0.122; under C2orf72 C244, 0.189. As to CAMKK2 C4 (UniProt Q96RR4), the “log2 mean competition ratio” value was found to be 0.0904. In the case of BRMS1L C275 (UniProt Q5PSV4), the “log2 mean competition ratio” value was -0.603. With BOLA1 C126 (UniProt Q9Y3E2), the “log2 mean competition ratio” value was 0.0407. For the target BTN3A2 C220 (UniProt P78410), the “log2 mean competition ratio” value is -0.0653.
